According to article PMC7819943, “Rice protein-binding microarrays: a tool to detect cis-acting elements near promoter regions in rice”:
Some of the results follow.

Chains of the proteins cited; added tags and fusions are not shown.
UniProt Q0JBA9, entry or part of it: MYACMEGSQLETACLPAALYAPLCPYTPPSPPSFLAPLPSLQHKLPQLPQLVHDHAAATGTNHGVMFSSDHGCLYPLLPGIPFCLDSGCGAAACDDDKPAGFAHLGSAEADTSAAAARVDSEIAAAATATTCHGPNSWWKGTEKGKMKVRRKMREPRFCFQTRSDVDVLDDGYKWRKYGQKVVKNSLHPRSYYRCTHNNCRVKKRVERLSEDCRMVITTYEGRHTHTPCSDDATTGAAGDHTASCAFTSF

Target: OsWRKY34 (Oryza sativa, UniProt Q0JBA9 1-250)
Assay: protein-binding microarray (RPBM); PBS, 2% BSA, 51.3 ng/ul salmon testes DNA, 50 uM zinc acetate, 200 nM TF, 25 C, 1 h; high values mean tight binding
Settings: protein: recombinant; tags: N-terminal polyhistidine and DsRed monomer fusion (pET32a); label: CyDye5-dUTP incorporated in the synthesized complementary strand; 3' TTTTT single-stranded linker to array surface; dsDNA, one strand shown
Outline: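 Ni–NTA purification followed expression in E. coli BL21-CodonPlus of transcription factors fused N-terminally to a polyhistidine tag and DsRed. At 200 nM in PBS with 2% BSA, salmon testes DNA and 50 µM zinc acetate, the protein was incubated for 1 h at 25 °C with a custom Agilent array that had been primer-extended with Cy5-dUTP and blocked with 2% BSA. After washing, the array was read on an Axon 4000B scanner. The binding signal is per-feature fluorescence intensity in arbitrary units.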

Sequence | binding signal
TCAGTAGTGTGGATTCTCTCGTGTAACAATGCACTCTTTTCGGAGTCACCTAGTGCAG | 9550 fluorescence intensity (a.u.)
GTTTTAGGCTTTTTGATTACAATTTATTTTCCAATCTTTACGGAGTCACCTAGTGCAG | 8140 fluorescence intensity (a.u.)
AGGCCACCGGCACCACCCGGTCACCCGTCCGCATCGTCGCCGGAGTCACCTAGTGCAG | 8480 fluorescence intensity (a.u.)
GCTGTTTTTTGACGTATAGTTGTCCTCTGTCGTGAGTTATCGGAGTCACCTAGTGCAG | 12900 fluorescence intensity (a.u.)
GGAGGAGGGGCGGCGGAGCGGGTGGTGGGGAGGCGACATGCGGAGTCACCTAGTGCAG | 17900 fluorescence intensity (a.u.)
GTATGTGTACTCTTGCTGTGATGTGTGGTCGATCGAGTCACGGAGTCACCTAGTGCAG | 8600 fluorescence intensity (a.u.)
GCAGTTGCATGGGTTTTTTTTTGTCCAAAAATAGATTTTTCGGAGTCACCTAGTGCAG | 8510 fluorescence intensity (a.u.)
CGTGTTGTGGCCTTTTTACTTTCTCACTTGTACAAATTTTCGGAGTCACCTAGTGCAG | 9890 fluorescence intensity (a.u.)
GATTTAGTGTAAGTGGAATCTGTATTCCCTTTGATATTTTCGGAGTCACCTAGTGCAG | 8350 fluorescence intensity (a.u.)
CTCATGTATTCTTTTTGCCGGGTCTTTTTTCATGTGTATTCGGAGTCACCTAGTGCAG | 12600 fluorescence intensity (a.u.)
CGAGCTGCTTAAACCTAACTCCACCTCTAGTTCATTTTGTCGGAGTCACCTAGTGCAG | 8380 fluorescence intensity (a.u.)
CTCCCTCCGTTTCAAAATGTTTGACACCGTTGACTTTTTACGGAGTCACCTAGTGCAG | 28300 fluorescence intensity (a.u.)
ACTTTTCCGTCACATCGTTCTAATTTCTTCAAACTTCTAACGGAGTCACCTAGTGCAG | 9730 fluorescence intensity (a.u.)
GTGTCTTATTGGAAAATTTTGCCACTCTCGTAATCTTACACGGAGTCACCTAGTGCAG | 11800 fluorescence intensity (a.u.)
TTGTCCCTTGTAATATGTAACATCCTCATCAATGTGTGAACGGAGTCACCTAGTGCAG | 9420 fluorescence intensity (a.u.)
TCATCTACAGTGCCTGAGAAATCATCATACCATATATTTTCGGAGTCACCTAGTGCAG | 8240 fluorescence intensity (a.u.)
CCACCACGCGAACGACGACTCGATCAACATCACCAGCCAGCGGAGTCACCTAGTGCAG | 8770 fluorescence intensity (a.u.)
ACTGTACGCTGCCTGCTGTACTGCTCGCTCTCCTCAGTCCCGGAGTCACCTAGTGCAG | 8670 fluorescence intensity (a.u.)
GGCCCCACATGTCAGATTGTCCACGTCATCACTTTGTCTTCGGAGTCACCTAGTGCAG | 12200 fluorescence intensity (a.u.)
TCTGTTAAGCAGGTTTGTTCTCTTCGTCAATTTATTCTTCCGGAGTCACCTAGTGCAG | 9190 fluorescence intensity (a.u.)
GATTTGCCGGCTTGCCATGGCTGCACGCACCAAAGGCCTCCGGAGTCACCTAGTGCAG | 8720 fluorescence intensity (a.u.)

Sequence | binding signal
TTCTTCTCTCGTCTCTAGGCCTCTCCAACCCCGAGCTCGCCGGAGTCACCTAGTGCAG | 11000 fluorescence intensity (a.u.)
CCGCGCCTGCGCCACCACCACCACCGTTCGTCCGCTCGCCCGGAGTCACCTAGTGCAG | 8780 fluorescence intensity (a.u.)
AAAAACTCCTATGTTTTTTCTTTCTATGGTTTTCCAACACCGGAGTCACCTAGTGCAG | 8910 fluorescence intensity (a.u.)
ATCTCCTCCTCATTCGATTCGACGCAACAGTCGCACTATTCGGAGTCACCTAGTGCAG | 8760 fluorescence intensity (a.u.)
TTTAGCGCACTCATCTTTTTTTTTTTCAACGCTTAACTGTCGGAGTCACCTAGTGCAG | 9680 fluorescence intensity (a.u.)
CCCTCTCGTTCTTTCTCGCCTCTCTCTCTCTCTCGCCTCTCGGAGTCACCTAGTGCAG | 8560 fluorescence intensity (a.u.)
GAGTATCTTTGCCCCTGCTTCTGCTGCCCAATGTGTTCCTCGGAGTCACCTAGTGCAG | 9510 fluorescence intensity (a.u.)
TCTCCTCTCTCTCTCTTCTTCCCGGGGAGGCGGGGAGCGGCGGAGTCACCTAGTGCAG | 11700 fluorescence intensity (a.u.)
TCCTCAGAATTGACCAAGCTGTGCTCCTACCATTTCACATCGGAGTCACCTAGTGCAG | 9130 fluorescence intensity (a.u.)
AAGAATTGCGAATCTTTCCTGTCCGAATCTAGCGGAATATCGGAGTCACCTAGTGCAG | 8180 fluorescence intensity (a.u.)
CGTCTCGTCTCGCACTCTCGCATCGTCTTCTCCTTCCTCCCGGAGTCACCTAGTGCAG | 9220 fluorescence intensity (a.u.)
TACTGAACTGAAGTATGTCATGTTGCTTTCCTTAATTTCACGGAGTCACCTAGTGCAG | 8260 fluorescence intensity (a.u.)
TATTGTTTTCTCTACCCCTTTTGCTGAGTTATTAACCTTTCGGAGTCACCTAGTGCAG | 10100 fluorescence intensity (a.u.)
GTTTGCATTTTTAGGGAGTAAAACCTTACGTGGTTAGAAACGGAGTCACCTAGTGCAG | 10400 fluorescence intensity (a.u.)
ACGATGCGGGACGTGGGGTGGGATCGAAAGCAAGAAAGTTCGGAGTCACCTAGTGCAG | 10800 fluorescence intensity (a.u.)
TACTCATGTACTAGTACCCAACCCCACCAGAATACGCAACCGGAGTCACCTAGTGCAG | 9110 fluorescence intensity (a.u.)
TTCTCATCTCCACTTTCCTAACTCACATATCTCGTTTTCCCGGAGTCACCTAGTGCAG | 8260 fluorescence intensity (a.u.)
GTCATATGATTTCCACGTGTCATTAACCTATGAAAGTGTGCGGAGTCACCTAGTGCAG | 8510 fluorescence intensity (a.u.)
CCCCACCCACACGGCCACACCACCCGATCCACGTGCCTCGCGGAGTCACCTAGTGCAG | 8510 fluorescence intensity (a.u.)
TCTTAGATACCGTATTTGTCCGTCAGTTACGTCTTTTGCTCGGAGTCACCTAGTGCAG | 9740 fluorescence intensity (a.u.)
TGTTTTATACTCCTCCGTCCCATTTTAAGTGCAAACATAACGGAGTCACCTAGTGCAG | 8960 fluorescence intensity (a.u.)

Sequence | binding signal
TATTGTTGCAGCTGCCTGCGCCTTCATCTCCTCCCACTTGCGGAGTCACCTAGTGCAG | 10300 fluorescence intensity (a.u.)
TCTTACATATAGTTTTAAGGTGTGTTTGGTTGTTGGCCACCGGAGTCACCTAGTGCAG | 8180 fluorescence intensity (a.u.)
CTCTTTGCGTTACTACCTTTTCCTTTTCCTTCTTTCTTCGCGGAGTCACCTAGTGCAG | 9710 fluorescence intensity (a.u.)
ATGTTTTTATGCTGCATTCCCCATGTGTGTTTCCTTCTAACGGAGTCACCTAGTGCAG | 19600 fluorescence intensity (a.u.)
GCATCACACACTCGTCAGCAACACGTCTTACATATTTCACCGGAGTCACCTAGTGCAG | 10100 fluorescence intensity (a.u.)
CATCATCACCACTGCTTCTCCCATGTCTCCATGTTCTGTGCGGAGTCACCTAGTGCAG | 9640 fluorescence intensity (a.u.)
AACAAAAGTTGTTTTGACTCACGCGGTGGCTGTTGTCTGTCGGAGTCACCTAGTGCAG | 8550 fluorescence intensity (a.u.)
CAAGCAACCCCTGTCTAGCTTCCTCTACCATCCCTTATATCGGAGTCACCTAGTGCAG | 9900 fluorescence intensity (a.u.)
CGAGCTAATTATCGCCATCGCCCGCCGCGATCTATATAAACGGAGTCACCTAGTGCAG | 8480 fluorescence intensity (a.u.)
TTTCACAATTCATTCTCAGTACTCAAATCTGGTCAAACAACGGAGTCACCTAGTGCAG | 8200 fluorescence intensity (a.u.)
CACGTGTTGACCAGACCTGACACAAACTCACATTCATTACCGGAGTCACCTAGTGCAG | 9210 fluorescence intensity (a.u.)
CTGCTCTTTCTTCTCTCTGCATTCCATTTCATTACTGCCTCGGAGTCACCTAGTGCAG | 11000 fluorescence intensity (a.u.)
CCGTTTTTTTTTTCTTCAACCAAAACTACTGCAATTATTACGGAGTCACCTAGTGCAG | 8460 fluorescence intensity (a.u.)
AGTAAATACTAACCGTGAAGTACAGTCAACTGTGTGTTGACGGAGTCACCTAGTGCAG | 8820 fluorescence intensity (a.u.)
CCCTTACCCGCCTTATCTTCCACATCCGAGGATTTCTCTCCGGAGTCACCTAGTGCAG | 12800 fluorescence intensity (a.u.)
ATTTTTAAAAGTATACTTTTGCCTTTCGATACCTTAATTCCGGAGTCACCTAGTGCAG | 9300 fluorescence intensity (a.u.)
CACCGTCACCGCCGCCGCTCATGTCGACGCGGTCCAAGTCCGGAGTCACCTAGTGCAG | 11200 fluorescence intensity (a.u.)
GCCGGCGACAAGATACGCGAGTACGCCTCGCGCCGCGCCGCGGAGTCACCTAGTGCAG | 8370 fluorescence intensity (a.u.)
CCACCACACGCATCACCCGCCCGCCACCCACTCGCGACCCCGGAGTCACCTAGTGCAG | 11700 fluorescence intensity (a.u.)
CTTGGCTTGGCTCGCCTTCTTGTTTGTGTGGCGGGGAGGACGGAGTCACCTAGTGCAG | 13100 fluorescence intensity (a.u.)
TTTTTGAGTTTTTTCATGGGTGGTTTGTGTCTCGTACGATCGGAGTCACCTAGTGCAG | 8660 fluorescence intensity (a.u.)

Sequence | binding signal
GCTAAACGACTCTGCACCCATCTCGTCTCTATCTCCTCACCGGAGTCACCTAGTGCAG | 13100 fluorescence intensity (a.u.)
AGGGAGCGGGTGTGGGTTGCCGGGCTAAAAAGCCGCCGGCCGGAGTCACCTAGTGCAG | 8550 fluorescence intensity (a.u.)
AATGATTGTTGGATAATTCCATTGCTGCCGTATTTTTTTACGGAGTCACCTAGTGCAG | 10800 fluorescence intensity (a.u.)
GAGAAGGAACCGCGACGTTTGCATAATTCCGTCACTAACACGGAGTCACCTAGTGCAG | 8620 fluorescence intensity (a.u.)
AGGGTGAACAGAAGAAGATGAATCTAACGGGTGGGTCTCACGGAGTCACCTAGTGCAG | 10800 fluorescence intensity (a.u.)
TGTATTGATATGTGTGGGATGGGTGAAAAATAAATTTGTTCGGAGTCACCTAGTGCAG | 10100 fluorescence intensity (a.u.)
ATTTCACCAAGCCCAGTCCTCGAGCCCGCGTAACTGCAAACGGAGTCACCTAGTGCAG | 9000 fluorescence intensity (a.u.)
GCCCAAACCCATCCTCCGCCGCCAACGCGCCGAGAGCAAACGGAGTCACCTAGTGCAG | 9290 fluorescence intensity (a.u.)
CCATGGAGCAGGTCTCGTGCTTCGCCGCCGCCGCCGCCGCCGGAGTCACCTAGTGCAG | 8080 fluorescence intensity (a.u.)
ACCAACTCCACACACTCCAAAATAAGCTTTCACTTTCATCCGGAGTCACCTAGTGCAG | 9060 fluorescence intensity (a.u.)
CACTTCCTGGTCCCACCACCCCTCCGCCACCTTTGCATTCCGGAGTCACCTAGTGCAG | 8730 fluorescence intensity (a.u.)
ATTACTGGAACTCTGTTGTATGTATTTCTGCATCACTTTCCGGAGTCACCTAGTGCAG | 8490 fluorescence intensity (a.u.)
TGCCATATACTATAAATTTACTCGATCCGTCTCAAAATATCGGAGTCACCTAGTGCAG | 10700 fluorescence intensity (a.u.)
ATAATCATTCATTTCACCTTGTCTTCTCAATATATTTTGCCGGAGTCACCTAGTGCAG | 9580 fluorescence intensity (a.u.)
GATGAAATTGGTTTATAGCCTCTCGCTTAATGTTTTCTTTCGGAGTCACCTAGTGCAG | 8160 fluorescence intensity (a.u.)
CTCACACTAACCCACCCACCCCAGCCCTAGCTTTTTTTTTCGGAGTCACCTAGTGCAG | 11700 fluorescence intensity (a.u.)
AGAAGGGTGAAATTTTGAGAGGTTTGTTTGCTTTGAGATTCGGAGTCACCTAGTGCAG | 8220 fluorescence intensity (a.u.)
GGGGCAATAAGACGCTGTTCTCGTTTCAGTTTTCTTGCTCCGGAGTCACCTAGTGCAG | 9580 fluorescence intensity (a.u.)
TATAGGTTTGGTGAGCCCATGCATGCATATTTTTAGTCTCCGGAGTCACCTAGTGCAG | 9040 fluorescence intensity (a.u.)
TTTTATTTTTAATCGGATACTCCTTTTTTTTTACCTTTTGCGGAGTCACCTAGTGCAG | 8830 fluorescence intensity (a.u.)
TAGCTTCCTTTCGTCCTCATACGCCGCCGGTTCTGTTTCGCGGAGTCACCTAGTGCAG | 8700 fluorescence intensity (a.u.)

Reformatted as comma-separated lines: entries from further up
Sequence,binding signal
GATTTGCCGGCTTGCCATGGCTGCACGCACCAAAGGCCTCCGGAGTCACCTAGTGCAG,8720 fluorescence intensity (a.u.)
AAAAACTCCTATGTTTTTTCTTTCTATGGTTTTCCAACACCGGAGTCACCTAGTGCAG,8910 fluorescence intensity (a.u.)
ATCTCCTCCTCATTCGATTCGACGCAACAGTCGCACTATTCGGAGTCACCTAGTGCAG,8760 fluorescence intensity (a.u.)
TCTCCTCTCTCTCTCTTCTTCCCGGGGAGGCGGGGAGCGGCGGAGTCACCTAGTGCAG,11700 fluorescence intensity (a.u.)
TATTGTTTTCTCTACCCCTTTTGCTGAGTTATTAACCTTTCGGAGTCACCTAGTGCAG,10100 fluorescence intensity (a.u.)
TATTGTTGCAGCTGCCTGCGCCTTCATCTCCTCCCACTTGCGGAGTCACCTAGTGCAG,10300 fluorescence intensity (a.u.)
GCATCACACACTCGTCAGCAACACGTCTTACATATTTCACCGGAGTCACCTAGTGCAG,10100 fluorescence intensity (a.u.)
CGAGCTAATTATCGCCATCGCCCGCCGCGATCTATATAAACGGAGTCACCTAGTGCAG,8480 fluorescence intensity (a.u.)
CACCGTCACCGCCGCCGCTCATGTCGACGCGGTCCAAGTCCGGAGTCACCTAGTGCAG,11200 fluorescence intensity (a.u.)
GCCGGCGACAAGATACGCGAGTACGCCTCGCGCCGCGCCGCGGAGTCACCTAGTGCAG,8370 fluorescence intensity (a.u.)
GCTAAACGACTCTGCACCCATCTCGTCTCTATCTCCTCACCGGAGTCACCTAGTGCAG,13100 fluorescence intensity (a.u.)
ATTACTGGAACTCTGTTGTATGTATTTCTGCATCACTTTCCGGAGTCACCTAGTGCAG,8490 fluorescence intensity (a.u.)
TTTTATTTTTAATCGGATACTCCTTTTTTTTTACCTTTTGCGGAGTCACCTAGTGCAG,8830 fluorescence intensity (a.u.)
